The other results are listed elsewhere or left out. Most entries show no effect beyond the scatter of the controls.

The chains behind the UniProt entries cited, without tags or fusion partners. Where a name states a change or a piece, a line headed by the entry shows the natural chain unless it says otherwise.
UniProt Q9Y3A0: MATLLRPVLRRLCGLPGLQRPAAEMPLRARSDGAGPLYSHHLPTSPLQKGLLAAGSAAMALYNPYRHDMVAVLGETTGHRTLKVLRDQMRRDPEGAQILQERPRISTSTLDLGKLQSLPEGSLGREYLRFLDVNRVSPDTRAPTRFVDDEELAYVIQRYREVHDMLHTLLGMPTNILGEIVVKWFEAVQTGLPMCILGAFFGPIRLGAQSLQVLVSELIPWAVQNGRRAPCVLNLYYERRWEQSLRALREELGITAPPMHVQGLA
UniProt Q9Y3D7: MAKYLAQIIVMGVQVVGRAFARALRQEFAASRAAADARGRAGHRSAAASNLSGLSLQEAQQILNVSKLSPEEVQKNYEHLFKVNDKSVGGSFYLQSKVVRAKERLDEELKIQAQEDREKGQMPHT
UniProt Q9Y3E1: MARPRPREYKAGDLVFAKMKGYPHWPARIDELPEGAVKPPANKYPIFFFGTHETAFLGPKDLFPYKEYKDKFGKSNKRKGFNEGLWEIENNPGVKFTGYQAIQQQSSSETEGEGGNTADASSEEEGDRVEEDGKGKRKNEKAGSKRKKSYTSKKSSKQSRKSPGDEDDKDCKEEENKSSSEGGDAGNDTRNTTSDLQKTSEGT
UniProt Q9Y4P8: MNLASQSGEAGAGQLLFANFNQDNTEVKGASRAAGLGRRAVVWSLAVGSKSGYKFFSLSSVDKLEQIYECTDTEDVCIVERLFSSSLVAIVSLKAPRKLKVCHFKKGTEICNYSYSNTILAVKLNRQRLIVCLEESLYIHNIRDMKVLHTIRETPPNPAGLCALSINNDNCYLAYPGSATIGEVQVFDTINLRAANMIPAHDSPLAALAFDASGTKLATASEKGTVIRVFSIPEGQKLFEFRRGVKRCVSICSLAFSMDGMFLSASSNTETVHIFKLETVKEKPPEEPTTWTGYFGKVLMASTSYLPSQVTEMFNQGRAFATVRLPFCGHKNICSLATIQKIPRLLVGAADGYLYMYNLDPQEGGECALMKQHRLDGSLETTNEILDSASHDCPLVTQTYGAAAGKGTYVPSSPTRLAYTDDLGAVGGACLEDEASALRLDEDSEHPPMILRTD
UniProt Q9Y3D8, whole entry: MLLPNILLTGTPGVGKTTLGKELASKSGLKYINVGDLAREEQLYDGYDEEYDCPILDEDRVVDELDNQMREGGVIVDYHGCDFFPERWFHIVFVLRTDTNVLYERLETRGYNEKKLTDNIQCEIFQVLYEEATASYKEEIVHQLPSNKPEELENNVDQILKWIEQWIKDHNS
UniProt Q9Y4H2: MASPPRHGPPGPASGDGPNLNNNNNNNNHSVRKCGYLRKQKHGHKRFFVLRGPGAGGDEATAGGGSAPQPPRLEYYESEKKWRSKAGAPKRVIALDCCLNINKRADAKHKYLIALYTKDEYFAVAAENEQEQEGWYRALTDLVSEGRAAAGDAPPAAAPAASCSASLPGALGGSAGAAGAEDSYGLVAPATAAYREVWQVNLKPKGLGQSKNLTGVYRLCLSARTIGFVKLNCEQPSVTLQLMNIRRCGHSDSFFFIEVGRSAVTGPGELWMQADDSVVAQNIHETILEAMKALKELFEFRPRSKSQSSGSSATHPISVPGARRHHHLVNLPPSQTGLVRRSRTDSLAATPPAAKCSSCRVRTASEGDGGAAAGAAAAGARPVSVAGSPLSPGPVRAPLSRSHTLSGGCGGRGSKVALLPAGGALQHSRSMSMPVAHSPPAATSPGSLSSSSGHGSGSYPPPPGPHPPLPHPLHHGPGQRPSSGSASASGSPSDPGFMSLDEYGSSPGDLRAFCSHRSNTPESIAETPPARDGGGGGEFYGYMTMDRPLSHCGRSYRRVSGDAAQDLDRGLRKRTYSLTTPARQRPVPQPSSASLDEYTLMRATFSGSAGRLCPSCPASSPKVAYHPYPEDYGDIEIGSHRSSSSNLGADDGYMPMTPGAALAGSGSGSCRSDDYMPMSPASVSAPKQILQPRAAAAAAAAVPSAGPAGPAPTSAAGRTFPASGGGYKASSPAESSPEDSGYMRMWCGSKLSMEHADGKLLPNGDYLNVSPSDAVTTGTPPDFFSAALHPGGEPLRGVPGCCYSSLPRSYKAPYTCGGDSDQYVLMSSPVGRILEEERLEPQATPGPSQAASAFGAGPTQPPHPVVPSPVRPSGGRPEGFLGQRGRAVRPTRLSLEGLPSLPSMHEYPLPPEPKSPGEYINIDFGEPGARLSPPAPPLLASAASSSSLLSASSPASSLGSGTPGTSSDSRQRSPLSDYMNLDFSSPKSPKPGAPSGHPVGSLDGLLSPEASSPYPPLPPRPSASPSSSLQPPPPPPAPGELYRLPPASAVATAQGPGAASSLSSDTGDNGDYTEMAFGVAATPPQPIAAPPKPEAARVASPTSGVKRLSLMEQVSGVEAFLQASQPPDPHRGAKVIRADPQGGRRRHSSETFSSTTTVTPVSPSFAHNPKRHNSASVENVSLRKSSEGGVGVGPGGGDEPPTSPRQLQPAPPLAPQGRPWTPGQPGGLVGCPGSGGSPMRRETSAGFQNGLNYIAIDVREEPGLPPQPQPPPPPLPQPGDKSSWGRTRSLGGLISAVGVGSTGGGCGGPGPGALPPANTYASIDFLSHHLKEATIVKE
UniProt Q9Y3Z3: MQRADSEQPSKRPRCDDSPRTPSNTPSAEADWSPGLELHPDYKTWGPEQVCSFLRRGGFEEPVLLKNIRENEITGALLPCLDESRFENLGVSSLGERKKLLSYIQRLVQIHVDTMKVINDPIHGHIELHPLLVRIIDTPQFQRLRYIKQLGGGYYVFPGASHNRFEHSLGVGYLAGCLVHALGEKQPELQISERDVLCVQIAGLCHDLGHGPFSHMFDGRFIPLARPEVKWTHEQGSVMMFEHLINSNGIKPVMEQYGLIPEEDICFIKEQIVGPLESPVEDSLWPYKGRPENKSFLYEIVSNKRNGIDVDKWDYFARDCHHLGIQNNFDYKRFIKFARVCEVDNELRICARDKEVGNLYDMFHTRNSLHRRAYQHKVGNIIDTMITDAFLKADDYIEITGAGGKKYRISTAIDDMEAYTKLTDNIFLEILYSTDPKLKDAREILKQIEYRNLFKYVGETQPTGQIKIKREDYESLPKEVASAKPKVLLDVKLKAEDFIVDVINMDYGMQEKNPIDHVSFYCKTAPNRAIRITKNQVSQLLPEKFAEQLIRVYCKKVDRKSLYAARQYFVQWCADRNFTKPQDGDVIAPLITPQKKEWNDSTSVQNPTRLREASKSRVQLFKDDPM
UniProt Q9Y6M1: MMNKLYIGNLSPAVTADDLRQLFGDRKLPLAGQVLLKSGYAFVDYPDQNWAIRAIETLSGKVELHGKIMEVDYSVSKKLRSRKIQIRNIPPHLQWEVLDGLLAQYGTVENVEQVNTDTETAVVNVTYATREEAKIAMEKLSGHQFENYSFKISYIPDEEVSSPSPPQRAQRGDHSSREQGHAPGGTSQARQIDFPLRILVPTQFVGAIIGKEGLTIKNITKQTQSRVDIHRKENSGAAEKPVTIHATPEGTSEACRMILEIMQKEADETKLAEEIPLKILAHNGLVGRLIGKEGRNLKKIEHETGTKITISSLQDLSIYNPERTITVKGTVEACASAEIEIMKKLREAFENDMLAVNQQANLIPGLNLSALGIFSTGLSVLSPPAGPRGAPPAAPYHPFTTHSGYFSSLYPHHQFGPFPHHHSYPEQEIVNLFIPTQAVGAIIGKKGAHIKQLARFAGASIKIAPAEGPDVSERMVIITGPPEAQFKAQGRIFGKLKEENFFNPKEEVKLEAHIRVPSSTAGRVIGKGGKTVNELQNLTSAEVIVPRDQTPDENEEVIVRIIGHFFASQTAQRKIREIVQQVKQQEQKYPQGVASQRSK
UniProt Q9Y5A6: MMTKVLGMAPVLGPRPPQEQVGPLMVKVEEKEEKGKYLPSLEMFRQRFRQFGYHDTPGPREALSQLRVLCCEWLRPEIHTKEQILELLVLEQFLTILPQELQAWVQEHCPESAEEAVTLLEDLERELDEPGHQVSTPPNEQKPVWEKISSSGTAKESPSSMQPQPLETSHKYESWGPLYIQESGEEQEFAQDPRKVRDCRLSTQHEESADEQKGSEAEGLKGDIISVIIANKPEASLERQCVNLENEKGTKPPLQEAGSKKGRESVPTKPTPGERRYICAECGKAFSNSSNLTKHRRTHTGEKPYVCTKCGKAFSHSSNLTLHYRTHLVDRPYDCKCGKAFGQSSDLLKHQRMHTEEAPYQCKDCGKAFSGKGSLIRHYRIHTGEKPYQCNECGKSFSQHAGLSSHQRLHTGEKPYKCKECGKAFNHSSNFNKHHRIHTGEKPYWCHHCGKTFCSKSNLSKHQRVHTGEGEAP
UniProt Q9Y6K9, whole entry: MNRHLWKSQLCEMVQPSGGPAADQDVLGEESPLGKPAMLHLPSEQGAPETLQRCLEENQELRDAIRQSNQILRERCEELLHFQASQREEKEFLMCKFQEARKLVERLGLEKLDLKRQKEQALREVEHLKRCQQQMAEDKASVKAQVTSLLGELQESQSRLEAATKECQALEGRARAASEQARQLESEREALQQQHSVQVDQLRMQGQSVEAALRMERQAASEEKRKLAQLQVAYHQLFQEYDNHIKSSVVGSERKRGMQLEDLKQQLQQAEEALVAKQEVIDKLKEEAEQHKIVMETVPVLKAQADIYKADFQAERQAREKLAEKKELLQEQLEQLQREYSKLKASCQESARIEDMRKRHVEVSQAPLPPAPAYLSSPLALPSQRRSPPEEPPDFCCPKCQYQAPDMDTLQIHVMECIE
UniProt Q9Y478: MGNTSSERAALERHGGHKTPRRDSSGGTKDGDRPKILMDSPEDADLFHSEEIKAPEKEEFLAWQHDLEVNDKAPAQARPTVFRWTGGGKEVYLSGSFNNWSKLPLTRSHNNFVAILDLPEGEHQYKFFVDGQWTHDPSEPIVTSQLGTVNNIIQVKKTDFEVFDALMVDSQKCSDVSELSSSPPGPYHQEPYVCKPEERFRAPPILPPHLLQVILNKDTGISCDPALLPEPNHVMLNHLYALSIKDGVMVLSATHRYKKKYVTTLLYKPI
UniProt Q9Y2X9: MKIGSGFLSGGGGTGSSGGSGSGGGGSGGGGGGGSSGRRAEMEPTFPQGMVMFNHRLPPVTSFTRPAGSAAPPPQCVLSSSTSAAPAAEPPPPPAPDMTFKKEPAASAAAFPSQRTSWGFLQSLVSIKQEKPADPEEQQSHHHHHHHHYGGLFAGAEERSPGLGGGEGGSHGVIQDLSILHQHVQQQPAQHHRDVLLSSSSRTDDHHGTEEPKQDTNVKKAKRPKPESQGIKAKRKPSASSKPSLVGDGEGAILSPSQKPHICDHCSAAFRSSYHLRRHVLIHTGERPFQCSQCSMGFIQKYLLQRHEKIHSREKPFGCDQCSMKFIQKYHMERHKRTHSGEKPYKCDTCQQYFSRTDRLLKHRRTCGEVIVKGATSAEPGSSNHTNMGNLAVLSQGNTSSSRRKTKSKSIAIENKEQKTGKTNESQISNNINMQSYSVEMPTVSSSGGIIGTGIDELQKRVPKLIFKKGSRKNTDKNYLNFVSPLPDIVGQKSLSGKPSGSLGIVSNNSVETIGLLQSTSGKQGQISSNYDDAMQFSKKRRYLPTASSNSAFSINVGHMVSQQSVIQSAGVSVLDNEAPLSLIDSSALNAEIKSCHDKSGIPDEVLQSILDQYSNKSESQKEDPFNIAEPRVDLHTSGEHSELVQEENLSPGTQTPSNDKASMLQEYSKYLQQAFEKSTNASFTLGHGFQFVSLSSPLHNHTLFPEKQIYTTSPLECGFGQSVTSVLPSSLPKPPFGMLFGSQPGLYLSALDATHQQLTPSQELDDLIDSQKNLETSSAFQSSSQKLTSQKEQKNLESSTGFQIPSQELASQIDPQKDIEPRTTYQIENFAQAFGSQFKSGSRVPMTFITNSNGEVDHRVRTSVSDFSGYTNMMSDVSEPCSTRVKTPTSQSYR
UniProt Q9Y2J0: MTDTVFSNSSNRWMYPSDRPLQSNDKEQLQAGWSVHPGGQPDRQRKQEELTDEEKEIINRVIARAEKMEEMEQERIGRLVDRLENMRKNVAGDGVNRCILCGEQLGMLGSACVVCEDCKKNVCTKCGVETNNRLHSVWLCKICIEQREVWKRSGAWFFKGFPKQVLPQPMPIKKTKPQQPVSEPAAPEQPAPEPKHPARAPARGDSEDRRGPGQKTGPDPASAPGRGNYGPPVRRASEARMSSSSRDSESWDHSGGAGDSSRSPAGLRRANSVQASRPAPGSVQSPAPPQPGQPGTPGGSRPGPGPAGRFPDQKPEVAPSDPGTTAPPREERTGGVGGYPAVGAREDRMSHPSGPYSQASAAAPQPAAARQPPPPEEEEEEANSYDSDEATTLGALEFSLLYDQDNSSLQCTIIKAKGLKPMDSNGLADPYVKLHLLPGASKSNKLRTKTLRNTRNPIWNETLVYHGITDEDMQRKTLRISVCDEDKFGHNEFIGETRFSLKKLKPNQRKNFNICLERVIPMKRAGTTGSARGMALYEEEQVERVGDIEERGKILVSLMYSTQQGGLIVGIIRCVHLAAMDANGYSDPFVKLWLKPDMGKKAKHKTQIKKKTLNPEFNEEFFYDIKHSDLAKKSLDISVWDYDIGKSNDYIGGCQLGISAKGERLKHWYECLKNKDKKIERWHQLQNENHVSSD

Compound in this test: Cc1nc(Nc2ncc(C(=O)Nc3c(C)cccc3Cl)s2)cc(N2CCN(CCO)CC2)n1 [dasatinib]
Nature of the test: log2 fold change of tryptic peptide abundance, ligand vs vehicle (limited proteolysis) (log2 ratio); higher = more trypsin-susceptible (destabilized). The settings on record: ligand concentration: 5 uM; sample: K562 cleared lysate.
In the case of “COQ4 (peptide sequence: LQSLPEGSLGR, peptide start residue: 115) (UniProt Q9Y3A0)”, the log2 fold change is -0.265.

As to “CAB39 (peptide sequence: LLGELLLDR, peptide start residue: 232) (UniProt Q9Y376)”, the log2 fold change is -0.552.

“SH3BP1 (peptide sequence: LLEIQADYHRR, peptide start residue: 230) (UniProt Q9Y3L3)”: the log2 fold change was -0.304.

With “WSB1 (peptide sequence: LLLNLVDHTEVVR, peptide start residue: 162) (UniProt Q9Y6I7)”, the log2 fold change was 0.312.

For “MAGMAS (peptide sequence: LSPEEVQK, peptide start residue: 68) (UniProt Q9Y3D7)”, the log2 fold change is -0.206.

For the target “USP15 (peptide sequence: TEDTEHVIIPVCLR, peptide start residue: 559) (UniProt Q9Y4E8)”, the log2 fold change was found to be 0.12.

As to “KIF3A (peptide sequence: KVIVGGVDLLAK, peptide start residue: 478) (UniProt Q9Y496)”, the log2 fold change was -0.625.

As for “HDGFL3 (peptide sequence: NTTSDLQK, peptide start residue: 191) (UniProt Q9Y3E1)”, the log2 fold change turned out to be 0.0616.

For “WIPI2 (peptide sequence: GTYVPSSPTR, peptide start residue: 407) (UniProt Q9Y4P8)”, the log2 fold change is -0.138.

With “MRPL11 (peptide sequence: IGQPTVSYFLK, peptide start residue: 82) (UniProt Q9Y3B7)”, the log2 fold change was 0.112.

As for “DDX49 (peptide sequence: SSNTFSIK, peptide start residue: 137) (UniProt Q9Y6V7)”, the log2 fold change was -0.531.

Take “RUVBL1 (peptide sequence: TISHVIIGLKTAK, peptide start residue: 153) (UniProt Q9Y265)”: the log2 fold change stood at 0.533.

For the target “SRPRB (peptide sequence: SAAPSTLDSSSTAPAQLGKK, peptide start residue: 209) (UniProt Q9Y5M8)”, the log2 fold change is 0.0952.

As to “AK6 (peptide sequence: WIEQWIKDHNS, peptide start residue: 162) (UniProt Q9Y3D8)”, the log2 fold change was -0.0836.

For the target “IRS2 (peptide sequence: DGGGGGEFYGYMTMDRPLSHCGR, peptide start residue: 532) (UniProt Q9Y4H2)”, the log2 fold change was determined as 0.278.

As to “F11R (peptide sequence: KVIYSQPSAR, peptide start residue: 277) (UniProt Q9Y624)”, the log2 fold change was -0.0788.

“RAD54L2 (peptide sequence: ESVLQLACLK, peptide start residue: 927) (UniProt Q9Y4B4)”: the log2 fold change was -0.357.

In the case of “NFS1 (peptide sequence: VYFHTDAAQAVGK, peptide start residue: 227) (UniProt Q9Y697)”, the log2 fold change is -0.704.

Regarding “UniProt Q9Y3A3 (peptide sequence: HTLDGAACLLNSNKYFPSR, peptide start residue: 127)”, the log2 fold change is -0.419.

Regarding “AUP1 (peptide sequence: VKEVLPHVPLGVIQR, peptide start residue: 304) (UniProt Q9Y679)”, the log2 fold change came out at 0.0789.

Turning to “SAMHD1 (peptide sequence: NFTKPQDGDVIAPLITPQKK, peptide start residue: 577) (UniProt Q9Y3Z3)”, the log2 fold change was found to be 0.141.

On to “ZNF652 (peptide sequence: MSKPHLHETEEQPYFR, peptide start residue: 67) (UniProt Q9Y2D9)”, for which the log2 fold change is -0.0409.

Regarding “PUS1 (peptide sequence: VAAFKEEHIYPTIIGTERDER, peptide start residue: 365) (UniProt Q9Y606)”, the log2 fold change is 0.0791.

Consider “SLC5A6 (peptide sequence: SYGQDHLDTGLFPEKPR, peptide start residue: 585) (UniProt Q9Y289)”, for which the log2 fold change is 0.543.

As for “CHCHD2 (peptide sequence: AAPRPAPVAQPPAAAPPSAVGSSAAAPR, peptide start residue: 24) (UniProt Q9Y6H1)”, the log2 fold change is 0.177.

“MRPS33 (peptide sequence: LFGEVTRPTNSK, peptide start residue: 18) (UniProt Q9Y291)”: the log2 fold change was found to be 0.138.

On to “UniProt Q9Y5P4 (peptide sequence: SDGDFLHSTNGNKEK, peptide start residue: 212)”, for which the log2 fold change is -0.119.

For “IGF2BP2 (peptide sequence: ILAHNGLVGR, peptide start residue: 279) (UniProt Q9Y6M1)”, the log2 fold change was -0.109.

Regarding “ZSCAN21 (peptide sequence: AFGQSSDLLK, peptide start residue: 340) (UniProt Q9Y5A6)”, the log2 fold change was -0.414.

As to “IKBKG (peptide sequence: ECQALEGR, peptide start residue: 166) (UniProt Q9Y6K9)”, the log2 fold change is 0.066.

Turning to “TIMM10B (peptide sequence: LIHSNHR, peptide start residue: 56) (UniProt Q9Y5J6)”, the log2 fold change was -0.179.

Turning to “PRKAB1 (peptide sequence: FRAPPILPPHLLQVILNK, peptide start residue: 200) (UniProt Q9Y478)”, the log2 fold change came to 0.17.

Take “ZNF281 (peptide sequence: DVLLSSSSR, peptide start residue: 194) (UniProt Q9Y2X9)”: the log2 fold change was -0.408.

For the target “UniProt Q9Y448 (peptide sequence: DLTQKVELLEK, peptide start residue: 202)”, the log2 fold change was 0.407.

With “UniProt Q9Y2J0 (peptide sequence: KTKPQQPVSEPAAPEQPAPEPK, peptide start residue: 174)”, the log2 fold change stood at 0.0377.

Take “NUB1 (peptide sequence: LEQLECLDDAEKK, peptide start residue: 294) (UniProt Q9Y5A7)”: the log2 fold change came out at 0.362.

For “LAS1L (peptide sequence: RFSAGQWEAR, peptide start residue: 439) (UniProt Q9Y4W2)”, the log2 fold change worked out at 0.342.

The values above are taken from the supplement of paper PMC12819154, “High-throughput peptide-centric local stability assay extends protein–ligand identification to membrane proteins, tissues and bacteria” (Nature Structural & Molecular Biology, 2025).
